Results are given in words; binding and its absence hold for the method and conditions named. Binding seen in cells or lysates may run through a third protein. Binding can be weak; no strength is given. Where a sequence is shown, tags or fusion partners need not be part of it.

The assay concerns the target T1, HA-tagged wild-type BCAT1 (branched-chain amino acid transaminase 1) (UniProt P54687).
T1 sequence: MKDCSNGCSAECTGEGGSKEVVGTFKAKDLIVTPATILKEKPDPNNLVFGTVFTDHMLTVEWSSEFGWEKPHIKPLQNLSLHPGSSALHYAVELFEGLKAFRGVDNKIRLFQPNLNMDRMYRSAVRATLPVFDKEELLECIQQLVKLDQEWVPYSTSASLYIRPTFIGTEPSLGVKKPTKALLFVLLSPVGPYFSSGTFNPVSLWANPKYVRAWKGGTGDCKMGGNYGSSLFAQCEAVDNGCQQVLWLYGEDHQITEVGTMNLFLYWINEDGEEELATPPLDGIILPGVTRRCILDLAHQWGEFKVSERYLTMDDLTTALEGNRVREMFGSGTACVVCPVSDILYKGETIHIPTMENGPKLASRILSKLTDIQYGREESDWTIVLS
Description: co-IP; U251 cells transfected with HA-BCAT1 and Flag-tagged CHIP (wild type or truncated mutants); NP-40 lysis buffer, 1 ug antibody and protein A/G agarose beads, 4 °C, 8 h; western blot. On the technique in general: In western blotting, separated proteins are transferred to a membrane and probed.
On to “Flag-tagged CHIP mutant lacking the CC (coiled-coil) domain (domain or fragment)”, for which the binding entry is listed as “no binding”.
In the case of “Flag-tagged CHIP mutant lacking the U-box domain (domain or fragment)”, the binding entry was “binds”.
For “Flag-tagged CHIP mutant lacking the TPR domain (domain or fragment)” the value was “binds”.

For the origin of these results see paper PMC11286746.
